In patent publication US20220023316A1, “METHODS FOR THE TREATMENT OF DEPRESSION” (Praxis Precision Medicines, Inc., priority 2018, published 2022):
At least one read-out could not be matched to a standard name with certainty.

Experiment: Multiple escalating dose PK study of oral suspension in healthy subjects (Cohorts 1-3)
Conditions: Day 14 steady state

COC[C@@]1(O)CC[C@@]2(C)[C@@H](CC[C@@H]3[C@@H]2CC[C@]2(C)[C@@H](C(=O)Cn4ccnc4)CC[C@@H]32)C1 [Compound 1, 3α-Hydroxy-3β-methoxymethyl-21-(1′-imidazolyl)-5α-pregnan-20-one]
Vz/F (Cohort 1, 15.0 mg QD oral suspension, Geo Mean): 642.968 L
Vz/F (Cohort 1, 15.0 mg QD oral suspension, Mean): 655 L
Vz/F (Cohort 1, 15.0 mg QD oral suspension, Median): 656.82 L
Vz/F (Cohort 2, 30.0 mg QD oral suspension, Geo Mean): 550.639 L
Vz/F (Cohort 2, 30.0 mg QD oral suspension, Mean): 570 L
Vz/F (Cohort 2, 30.0 mg QD oral suspension, Median): 513.72 L
Vz/F (Cohort 3, 60.0 mg QD oral suspension, Geo Mean): 533.456 L
Vz/F (Cohort 3, 60.0 mg QD oral suspension, Mean): 574 L
Vz/F (Cohort 3, 60.0 mg QD oral suspension, Median): 531.34 L
